No constants are given. Whether binding was seen depends on the method and setting. In cells and extracts the contact can be indirect. A yes stands for co-enrichment or nearness to the bait. Other partners may have been found.

Protein sequences, listed by entry. Tags and fused reporters are not part of them. Lines headed by an entry give the natural chain unless they say otherwise; changes in a name come on top.
UniProt P09038: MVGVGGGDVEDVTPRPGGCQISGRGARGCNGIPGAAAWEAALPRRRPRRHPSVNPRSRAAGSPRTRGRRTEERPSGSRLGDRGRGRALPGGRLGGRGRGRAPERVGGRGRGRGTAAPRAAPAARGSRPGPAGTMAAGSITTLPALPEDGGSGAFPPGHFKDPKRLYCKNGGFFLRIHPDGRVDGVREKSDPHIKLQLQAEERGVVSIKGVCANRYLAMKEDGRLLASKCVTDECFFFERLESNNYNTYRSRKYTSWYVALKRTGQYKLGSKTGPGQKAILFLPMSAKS

In the assay the target is T1, Glypican-2 (human (endogenous in hESC-derived neural progenitor cells)) (UniProt Q8N158).
T1 sequence: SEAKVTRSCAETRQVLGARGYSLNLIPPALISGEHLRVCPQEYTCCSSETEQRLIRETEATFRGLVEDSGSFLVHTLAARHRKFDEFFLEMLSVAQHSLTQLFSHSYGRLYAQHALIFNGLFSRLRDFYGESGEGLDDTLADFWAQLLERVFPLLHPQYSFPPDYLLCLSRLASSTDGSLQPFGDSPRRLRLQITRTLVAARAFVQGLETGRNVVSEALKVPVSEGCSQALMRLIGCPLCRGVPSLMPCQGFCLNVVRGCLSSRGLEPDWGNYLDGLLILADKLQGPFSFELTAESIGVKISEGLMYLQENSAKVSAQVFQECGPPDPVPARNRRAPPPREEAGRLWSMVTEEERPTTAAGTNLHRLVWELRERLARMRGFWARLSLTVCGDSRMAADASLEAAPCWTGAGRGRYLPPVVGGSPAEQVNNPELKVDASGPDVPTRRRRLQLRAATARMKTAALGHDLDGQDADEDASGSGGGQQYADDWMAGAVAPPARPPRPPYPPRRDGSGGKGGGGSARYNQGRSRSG
Briefly: affinity purification with mass spectrometry; immunocompetitive capture mass spectrometry (ICC-MS): anti-Gpc2 resin (clone 2/43) incubated 1 h with lysates of 21-day differentiated NPCs (850 ug total protein per condition), lysates pre-incubated with 0, 100, 250, 500 and 1000 ng free anti-Gpc2 antibody, in triplicate; eluates on SDS-PAGE ….

Take “Fibroblast Growth Factor 2 (from UniProt P09038) (ligand)”: the binding entry was “binds”.

B1: GSLG1 (receptor, UniProt Q92896 30-1179)
chain: LPGQGVHSQGQGPGANFVSFVGQAGGGGPAGQQLPQLPQSSQLQQQQQQQQQQQQPQPPQPPFPAGGPPARRGGAGAGGGWKLAEEESCREDVTRVCPKHTWSNNLAVLECLQDVREPENEISSDCNHLLWNYKLNLTTDPKFESVAREVCKSTITEIKECADEPVGKGYMVSCLVDHRGNITEYQCHQYITKMTAIIFSDYRLICGFMDDCKNDINILKCGSIRLGEKDAHSQGEVVSCLEKGLVKEAEEREPKIQVSELCKKAILRVAELSSDDFHLDRHLYFACRDDRERFCENTQAGEGRVYKCLFNHKFEESMSEKCREALTTRQKLIAQDYKVSYSLAKSCKSDLKKYRCNVENLPRSREARLSYLLMCLESAVHRGRQVSSECQGEMLDYRRMLMEDFSLSPEIILSCRGEIEHHCSGLHRKGRTLHCLMKVVRGEKGNLGMNCQQALQTLIQETDPGADYRIDRALNEACESVIQTACKHIRSGDPMILSCLMEHLYTEKMVEDCEHRLLELQYFISRDWKLDPVLYRKCQGDASRLCHTHGWNETSEFMPQGAVFSCLYRHAYRTEEQGRRLSRECRAEVQRILHQRAMDVKLDPALQDKCLIDLGKWCSEKTETGQELECLQDHLDDLVVECRDIVGNLTELESEDIQIEALLMRACEPIIQNFCHDVADNQIDSGDLMECLIQNKHQKDMNEKCAIGVTHFQLVQMKDFRFSYKFKMACKEDVLKLCPNIKKKVDVVICLSTTVRNDTLQEAKEHRVSLKCRRQLRVEELEMTEDIRLEPDLYEACKSDIKNFCSAVQYGNAQIIECLKENKKQLSTRCHQKVFKLQETEMMDPELDYTLMRVCKQMIKRFCPEADSKTMLQCLKQNKNSELMDPKCKQMITKRQITQNTDYRLNPMLRKACKADIPKFCHGILTKAKDDSELEGQVISCLKLRYADQRLSSDCEDQIRIIIQESALDYRLDPQLQLHCSDEISSLCAEEAAAQEQTGQVEECLKVNLLKIKTELCKKEVLNMLKESKADIFVDPVLHTACALDIKHHCAAITPGRGRQMSCLMEALEDKRVRLQPECKKRLNDRIEMWSYAAKVAPADGFSDLAMQVMTSPSKNYILSVISGSICILFLIGLMCGRITKRVTRELKDR
Regarding B1, the binding result is reported as “binds”.

The values are drawn from article PMC5404329.
